The data set in a line: Isothermal titration calorimetry of chelators titrated with CaCl2. The note with it: 0.4 mM chelator in 10 mM MES, pH 7.4 ± 0.2, 25 °C; CaCl2 6 mM (EDTA, EGTA) or 25 mM (EDDS). It counts as binding.
Turning to `O=C(O)CC(NCCNC(CC(=O)O)C(=O)O)C(=O)O` (stereo not drawn) [EDDS, ethylenediamine-N,N′-disuccinic acid], the “Stoichiometry, N” value is 1.55 ± 0.04; the ΔH worked out at 0.963 ± 0.0908 kcal/mol; the ΔS came to 80.21 ± 0.63 kJ mol^−1 deg^−1.
The like results for `O=C(O)CN(CCN(CC(=O)O)CC(=O)O)CC(=O)O` [EDTA, Ethylenediaminetetraacetic acid] were, in that order, 1.12 ± 0.06, -2.761 ± 0.0598 kcal/mol and 77.70 ± 1.88 kJ mol^−1 deg^−1.
For the molecule `O=C(O)CN(CCOCCOCCN(CC(=O)O)CC(=O)O)CC(=O)O` [EGTA, ethylene glycol-bis(2-aminoethylether)-N,N,N′,N′-tetraacetic acid], the “Stoichiometry, N” value came out at 1.34 ± 0.29; the ΔH is -3.131 ± 0.1 kcal/mol; the ΔS was 54.68 ± 2.80 kJ mol^−1 deg^−1.

Values taken from paper PMC4111866, “Enhancement in corneal permeability of riboflavin using calcium sequestering compounds” (International Journal of Pharmaceutics, 2014).
